Assay results from patent US12281179 (dated 2025).

Test: general procedure: solution-phase peptide synthesis; EDC×HCl, DIPEA
Conditions: whole synthesis, HCl salt

FNBA-Glu(OtBu)-Lys(Boc)-HSer(Trt)-GlyOtBu
crude HPLC purity (HPLC): 90.6% | crude yield (with assay correction): 85.5%
